PubChem BioAssay AID652259, Drosophila RNAi Screening Center | 2013
In all, the deposit lists about 22,000 reagents; below is an unselected part of those with a known target gene and a result. In the full data, 233 (1.1%) were called active. 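Light values are raw, unnormalised plate reads; the ratio scores behind the reporter calls were not deposited.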 Unmarked entries are inactive. A plus sign joins genes that one reagent is predicted to hit. The record does not give: the amount of reagent, the time to read-out, the dose of the treatment.

Screen: 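Knock-downs that push a Wingless-driven reporter up or down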 (primary screen)
Cells: Drosophila clone 8 imaginal disc epithelial cells
Reagents: long dsRNA against Drosophila genes
Conditions: pathway stimulated by co-transfected Wingless expression plasmid
Measurement: 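Firefly luciferase from a tcf-site Wingless reporter, measured alongside co-transfected Renilla luciferase that tracks transfection; pathway stimulated by a Wingless plasmid; the firefly-to-Renilla ratio is not deposited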
Direction: firefly reporter light: higher = more Wg reporter light, before normalisation; Renilla control light: higher = more transfected or surviving cells
Rule for the call: 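a knock-down is a candidate when at least two out of four statistical tests show it departing from its plate mean; one test alone signals a weak candidate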
Meaning of the calls: active = candidate regulator (raises or lowers reporter); inactive = not a candidate

Gene	DRSC id	reporter change call, replicate 1	firefly reporter light, replicate 1	firefly reporter light, replicate 2	Renilla control light, replicate 1	Renilla control light, replicate 2
Scsalpha2 (Succinyl-coenzyme A synthetase alpha subunit 2)	DRSC16003		1917	6845	1041	2277
l(2)efl (lethal (2) essential for life)	DRSC04698		11880		3284	
Chd64	DRSC08649		6144		2352	
mbo (members only)	DRSC16123		7420		2872	
CG34248	DRSC09426		3037		1436	
CG4362	DRSC15567		11421		3301	
CG31038	DRSC15051		3936	3969	1226	1098
CG31038	DRSC16326		5499		3643	
CG31038	DRSC16327		6929		3712	
Sulf1 (Sulfated)	DRSC13150		3456		1673	
Sulf1 (Sulfated)	DRSC16874		14230		3773	
Myt1	DRSC11228		1831	7580	973	1776
dare + CG30033	DRSC22908		6.46e5	5.99e5	1.75e5	9088
CG17237	DRSC00491		3141	7872	1193	3272
beg (bad egg)	DRSC10923		2800		1569	
CG8301	DRSC16405		10374		2411	
Gr10b (Gustatory receptor 10b)	DRSC19477		18984		8908	
ms(3)K81 (male sterile (3) K81)	DRSC14746		6055		3239	
dor (deep orange)	DRSC18765		4258	6658	2182	3297
CG11035	DRSC14287		8164		3043	
CG10845	DRSC14272		12733		11444	
CG10907	DRSC09804		6009		2985	
m (miniature)	DRSC20181		17459		9723	
Spred (Sprouty-related protein with EVH-1 domain)	DRSC05976		17339		4406	
CG17134	DRSC02583		2827	5872	1085	2819
CG33124	DRSC00298		1992	4070	874	1869
Lst (Limostatin)	DRSC07146		8555		3536	
Dref (DNA replication-related element factor)	DRSC03319		8340		579	
CG8785	DRSC07266		10768		2608	
CG13086	DRSC02190		4939	7641	1380	2588
CG11858	DRSC14412		18380	6.93e5	20064	3.06e5
CG43146 (retired record)	DRSC09254		3552		1513	
Atg18b (Autophagy-related 18b)	DRSC03108		7004		1547	
CG7631	DRSC01873		2609	5720	1147	2214
mbc (myoblast city)	DRSC16995		12531		11724	
Sh3beta	DRSC11001		5201		2829	
Sh3beta	DRSC22053		4.84e5	4.86e5	1.87e5	1.89e5
sls (sallimus)	DRSC08528		15717		4218	
sls (sallimus)	DRSC08540		5520		2613	
sls (sallimus)	DRSC08670		6133		3191	
CG31468	DRSC13637		4496		2189	
RecQ4 (RecQ4 helicase)	DRSC11265		2326	5909	1632	2848
CR14117 (pseudo)	DRSC10121		4208		2070	
CG31419	DRSC15771		12865		2243	
RpL27A (Ribosomal protein L27A)	DRSC00781	Wg reporter activity raised	5195	14872	582	1730
fred (friend of echinoid)	DRSC00349		3493	11627	1526	3113
fred (friend of echinoid)	DRSC00599		3885	10835	1584	4281
fred (friend of echinoid)	DRSC00601		2164	4576	1032	1859
fred (friend of echinoid)	DRSC00602		2772	8129	1235	2976
fred (friend of echinoid)	DRSC21906		5.99e5	4.45e5	2.23e5	2.12e5
Fit2 (Fermitin 2)	DRSC10908		3627		1443	
CG11788	DRSC06084		4640		1751	
Gr28b (Gustatory receptor 28b)	DRSC02291		3074	7144	882	2497
Gr28b (Gustatory receptor 28b)	DRSC02292		2125	4826	659	1717
CG6333	DRSC10626		6836		3152	
TTLL1A (Tubulin tyrosine ligase-like 1A)	DRSC20121		1392	5108	776	2068
CG17187	DRSC15181		13120		3944	
onecut	DRSC17175		18900		11005	
CG6276	DRSC16007		6368		2072	
CG7737	DRSC07033		11946		3536	
AlkB	DRSC19115		2566		1112	
CG14329	DRSC14808		21398		4423	
CG15710	DRSC06581		6563		2280	
Hnf4 (Hepatocyte nuclear factor 4)	DRSC01032		21600		12246	
Hnf4 (Hepatocyte nuclear factor 4)	DRSC03344		3008		882	
CG34126	DRSC02726		2683	8308	803	2352
CG34126	DRSC22079		5.38e5	6.45e5	1.57e5	2.08e5
Obp58c (Odorant-binding protein 58c)	DRSC04166		2674	7569	624	2694
Nup54 (Nucleoporin 54kD)	DRSC07282		11645		2445	
CG43100 (retired record)	DRSC01001		14279		6097	
JMJD6 (Jumonji domain containing 6)	DRSC15787		3897	7288	1250	2791
nmd (no mitochondrial derivative)	DRSC02856		6488		2296	
CG4991	DRSC19928		2460	5424	896	2497

Copied from the list:
Result for JMJD6 (Jumonji domain containing 6) [DRSC15787] in “firefly reporter light, replicate 1”: 3897
Entry of Sh3beta [DRSC22053] in “firefly reporter light, replicate 2”: 4.86e5
Under “firefly reporter light, replicate 1”, fred (friend of echinoid) [DRSC21906] has 5.99e5
CG43146 (retired record) [DRSC09254], firefly reporter light, replicate 1 = 3552
Dref (DNA replication-related element factor) [DRSC03319], firefly reporter light, replicate 1 → 8340
